Source: PubChem BioAssay AID1439 (NMMLSC, 2008)
Out of some 220,000 compounds screened, about 770 (0.35%) were called active. The inconclusive results got no clear call from the source; some entries with a clear call stand among them for comparison. Cut-off read from the data, not from the text of the source: active = binding response below about 49% or above about 150%; inconclusive = no clear call, values can overlap the other calls; inactive = in between.

Protein sequences, listed by entry. Tags and fused reporters are not part of them.
UniProt P09471, whole entry, looked up: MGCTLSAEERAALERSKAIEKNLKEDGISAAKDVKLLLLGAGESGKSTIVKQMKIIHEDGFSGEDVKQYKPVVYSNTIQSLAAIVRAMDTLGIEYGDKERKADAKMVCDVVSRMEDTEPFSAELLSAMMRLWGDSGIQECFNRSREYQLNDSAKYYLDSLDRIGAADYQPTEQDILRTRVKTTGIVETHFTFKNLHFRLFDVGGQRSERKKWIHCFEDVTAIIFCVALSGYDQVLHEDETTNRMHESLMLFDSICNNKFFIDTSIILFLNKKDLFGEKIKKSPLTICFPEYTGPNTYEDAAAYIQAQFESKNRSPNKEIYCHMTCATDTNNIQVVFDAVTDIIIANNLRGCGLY

What follows are molecules tested against Guanine nucleotide-binding protein G(o) subunit alpha (Homo sapiens) (UniProt P09471) (assay: RGS7-Galphao binding modulators, primary screen, biochemical, multiplexed bead flow cytometry (AID 1439;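 note: fluorescent Galphao held in activated GDP-AlF4 state binding bead-coupled RGS7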)). Settings: at 10 µM, actives lie on both sides.

Row | Compound | binding response (% of control)
1 | Cc1csc(NC(=O)c2cc3c(C)nn(Cc4ccccc4Cl)c3s2)n1 | inactive: 113%
2 | CCCCCCC(=O)N1C/C=C\C(c2ccc(OC)cc2)N(Cc2ccc(F)cc2)C(=O)[C@H]1Cc1ccccc1 (stereo partly specified) | inconclusive: 73.9%
3 | O=C(CSc1n[nH]c(=O)n1Cc1ccco1)Nc1ccccc1 | inconclusive: 135%
4 | O=C(CN1CCOCC1)N/N=C/c1ccc(-c2cccc(Cl)c2Cl)o1 | inconclusive: 153%
5 | N#CC1=C(N)Nc2ncnn2C1c1ccc([N+](=O)[O-])cc1 (stereo unspecified) | inconclusive: 98.1%
6 | CC/C=C/C(=O)N1CC2(CC(c3cccc(NC(=O)CC)c3)=NO2)C[C@H]1C(N)=O (stereo partly specified) | inconclusive: 75.5%
7 | Nc1nc(C23CC4CC(CC(Cl)(C4)C2)C3)cs1 | inconclusive: 51.3%
8 | CCOCCCNC(=O)NC(=O)CN1CCN(S(=O)(=O)c2ccc3c(c2)OCCO3)CC1 | inconclusive: 97.8%
9 | COc1cc(/C=N/NC(=O)CSc2ccccn2)ccc1OC(C)C | inconclusive: 114%
10 | N/C(Cn1cncn1)=N\NC(=O)C(=O)Nc1cccc(C(F)(F)F)c1 | inconclusive: 90.5%
11 | CCOC(=O)c1c(CSc2ccccc2)n(C)c2ccc(O)c(CN3CCN(C)CC3)c12 | inconclusive: 113%
12 | CCOc1ccc(NC(=O)Nc2cc(C(C)C)c(O)cc2C)cc1 | inconclusive: 100%
13 | Cc1cc(C)n(CC(C)NCc2c(C(=O)N3CCOCC3)nc3c(C)cccn23)n1 (stereo unspecified) | inconclusive: -210%
14 | O=C(c1ccc(NS(=O)(=O)c2cccs2)cc1)N1CCN(c2ccccc2Cl)CC1 | inconclusive: 145%
15 | Nc1nc(SCC(=O)Nc2ccc([N+](=O)[O-])cc2)n[nH]1 | inactive: 101%
16 | O=C(Nc1nnc(SCc2c(Cl)cccc2Cl)s1)c1cccc([N+](=O)[O-])c1 | inconclusive: 133%
17 | O=C(CCc1nc(-c2ccc(Cl)cc2)no1)NCC1CCCO1 (stereo unspecified) | inconclusive: 119%
18 | CCC(C)(C)NC(=O)C1CCN(c2nc(OC)nc(OC)n2)CC1 | inactive: 91.6%
19 | Fc1ccc(CN2C3=NCCN3c3ccccc32)cc1 | inconclusive: 114%
20 | C#CCNc1ccc(C(=O)OCC)cc1 | inconclusive: 79.7%
21 | O=C1C=C(c2ccccc2)OC(=O)C1C(=O)c1ccccc1 (stereo unspecified) | inconclusive: 113%
22 | O=C(NCc1ccccc1)NC12CC3CC(CC(C3)C1)C2 | inconclusive: 112%
23 | COc1cccc(CNC(=O)CCC2CCCN(C(=O)CCc3c(C)noc3C)C2)c1 (stereo unspecified) | inactive: 101%

Row | Compound | binding response (% of control)
24 | Cc1ccc2nc(-c3ccc4c(c3)NC(=O)CO4)cn2c1 | inconclusive: 104%
25 | COc1cc(NC2c3ccccc3C(=O)N2Cc2ccc3c(c2)OCO3)cc(OC)c1 (stereo unspecified) | inconclusive: 102%
26 | O=[N+]([O-])c1cc(F)c2cccnc2c1O | inconclusive: 88.5%
27 | Cn1c(-n2c(CCCN3C(=O)c4ccccc4C3=O)nc3ccccc3c2=O)nc2ccccc21 | inactive: 116%
28 | COC(=O)c1ccccc1N=Nc1c(C)noc1C | inconclusive: 131%
29 | Cc1ccc(NC(=O)Cn2ccsc2=N)cc1S(=O)(=O)N(C)C | inconclusive: 101%
30 | CC(C)(C)NC(=O)C(=O)NNC(=O)c1cccc(F)c1 | inactive: 105%
31 | O=C(COC(=O)c1ccc[nH]c1=O)NCCc1ccc(Cl)cc1Cl | inconclusive: 86.6%
32 | COc1ccc(OC)c(C(=O)c2coc3ccc(O)cc23)c1 | inactive: 107%
33 | CCOC(=O)/C(=N\Nc1cc(Cl)ccc1Cl)N1CC(C)OC(C)C1 (stereo unspecified) | inconclusive: 120%
34 | O=C1NC(c2cccs2)Nc2sc3c(c21)CCCC3 (stereo unspecified) | inactive: 91.8%
35 | CCOC(=O)c1c(/N=C/N(C)C)sc(C=O)c1-c1ccccc1 | inconclusive: 98.2%
36 | CCc1ccc(OCC(=O)Nc2cc(S(=O)(=O)CC)ccc2O)cc1 | inactive: 96.6%
37 | O=C(NC(Cc1ccccc1)C(=O)O)/C(=C/c1ccc(F)cc1)NC(=O)c1ccccc1 (stereo unspecified) | inactive: 101%
38 | CC(C)OC(=O)c1cccc2c1C(=O)c1ccccc1-2 | inconclusive: 22.8%
39 | CC1CC2(C)Oc3ccccc3CC2C(C)C1CNCCCN(C)C (stereo unspecified) | inactive: 98.4%
40 | Nc1cc2c3c(cccc3c1)C(=O)N(CCN1CCCC1)C2=O | inconclusive: 121%
41 | CCN(CC)S(=O)(=O)c1ccc(NC(=O)c2cc(=O)[nH]c3ccccc23)cc1 | inconclusive: 111%
42 | c1cncc(-c2nc(NCC3COc4ccccc4O3)c3ccccc3n2)c1 (stereo unspecified) | inactive: 101%
43 | O=[N+]([O-])c1ccc(Cl)c(/C=N/Nc2nc(N3CCOCC3)nc(N3CCOCC3)n2)c1 | inactive: 91.9%
44 | COc1cc(C(=O)NCCNC(=O)C2CCCNC2=O)cc(OC)c1OC (stereo unspecified) | inconclusive: 370%
45 | C#Cc1cccc(-n2nnc(C(C)=O)c2C)c1 | inconclusive: 109%
46 | CCCC(=O)Nc1cccc(C(=O)Nc2ccccc2OCC)c1 | inconclusive: 93.8%

Part of the list above in order of molecular weight, descending.
Row | Compound | binding response (% of control)
36 | CCc1ccc(OCC(=O)Nc2cc(S(=O)(=O)CC)ccc2O)cc1 | inactive: 96.6%
3 | O=C(CSc1n[nH]c(=O)n1Cc1ccco1)Nc1ccccc1 | inconclusive: 135%
40 | Nc1cc2c3c(cccc3c1)C(=O)N(CCN1CCCC1)C2=O | inconclusive: 121%
15 | Nc1nc(SCC(=O)Nc2ccc([N+](=O)[O-])cc2)n[nH]1 | inactive: 101%
5 | N#CC1=C(N)Nc2ncnn2C1c1ccc([N+](=O)[O-])cc1 (stereo unspecified) | inconclusive: 98.1%
30 | CC(C)(C)NC(=O)C(=O)NNC(=O)c1cccc(F)c1 | inactive: 105%

Further results follow.

Row | Compound | binding response (% of control)
47 | COCCCN1CN=C(Nc2nc3ccccc3o2)NC1 | inconclusive: 102%
48 | O=C(Nc1cc(Oc2ccccc2)cc([N+](=O)[O-])c1)C12CC3CC(C1)CC(n1cnc(Cl)n1)(C3)C2 | inactive: 99.8%
49 | N#C/C(=C\c1cccc(O)c1)C(=O)Nc1ccc2c(c1)OCCO2 | inconclusive: 118%
50 | C/C=C\C=C\C(=O)N1CC2(CC(c3cccc(NC(=O)CC)c3)=NO2)C[C@H]1C(N)=O (stereo partly specified) | inconclusive: 65%
51 | Cc1oc2c(O)c(O)ccc2c(=O)c1-c1cnn(-c2ccccc2)c1 | active: 46.4%
52 | Cc1cccc(N=Nc2cnc(N)s2)c1 | inconclusive: 89.8%
53 | CCn1c(SCc2cccc(C)c2)nnc1-c1ccc(C)cc1 | inactive: 97.2%
54 | O=C(Nc1cccc(Cl)c1Cl)c1cc(S(=O)(=O)NCCc2ccccc2)ccc1F | inactive: 95.9%
55 | Cc1nn2c(NCCN3CCOCC3)c3c(nc2c1-c1ccccc1)CCCC3 | inconclusive: 88.3%
56 | Cn1c(=NC(=O)C2CC2)sc2cc(F)cc(F)c21 | inactive: 95.6%
57 | CCOCC(O)CS(=O)Cc1ccccc1 (stereo unspecified) | inactive: 101%
58 | O=C(O)c1ccccc1C(=O)Nc1ccc(-n2nccc2C(F)(F)F)cc1 | inconclusive: 99%
59 | Cc1cccc(C)c1NC(=O)CN(C)C(C)C(=O)Nc1ccccc1-c1ccccc1 (stereo unspecified) | inconclusive: 85.3%
60 | CC(=O)c1cccc(N(CC(=O)Nc2ccccc2F)S(C)(=O)=O)c1 | inconclusive: 85.5%
61 | COc1ccc(OC)c(C2=NOC(C(=O)Nc3cc(C)on3)C2)c1 (stereo unspecified) | inconclusive: -180%
62 | COc1cc(/C=N/NC(=O)c2ccccc2)ccc1O | inconclusive: 97.2%
63 | Cc1nnc(NC(=O)CSc2nc(N)c(NC(=O)c3cccs3)c(=O)[nH]2)s1 | inconclusive: 134%
64 | CSc1ccccc1NC(=O)c1cc2ncc(Br)cn2n1 | inactive: 113%
65 | CCCc1nnc(NC(=O)c2cn(CC)c3cc(N4CCN(C)CC4)c(F)cc3c2=O)s1 | inconclusive: 68.5%
66 | O=c1cc2[nH]c3ccccc3c(=O)n2nc1-c1ccccc1 | inactive: 98.6%
67 | O=C(CN1CCN(C(=O)c2ccco2)CC1)Nc1ccc2c(c1)OCCO2 | active: 178% [activator]
68 | CCc1nc(C#N)c(N2CCOCC2)o1 | inactive: 108%
69 | COc1ccc2nc(NC(=O)CSc3nnc(C)n3N)sc2c1 | inconclusive: 130%

Row | Compound | binding response (% of control)
70 | CC(=O)c1c(C)oc2c1cc(O)c1ccccc12 | inconclusive: 92.4%
71 | CCCCOc1ccc(C2CC(=O)NC2=O)cc1 (stereo unspecified) | inactive: 131%
72 | COc1ccc(-c2csc(NC3OC(=O)c4ccccc43)n2)cc1 (stereo unspecified) | inconclusive: 89.5%
73 | CCNc1ccc(C(=O)OC(C(=O)NC(N)=O)C(C)C)cc1[N+](=O)[O-] (stereo unspecified) | inactive: 106%
74 | COC(=O)CCCC1=CC2=C(c3ccccc3)C(=O)C(C)(OC(=O)C3CCCC3)C(=O)C2=CN1CC1CC1 (stereo unspecified) | inconclusive: 94.6%
75 | NS(=O)(=O)c1ccc(CCNC(=O)Cc2ccc(S(=O)(=O)N3CCCC3)s2)cc1 | inconclusive: 104%
76 | COc1ccc(/C=N/NC(=O)CCn2nc(C)cc2C)cc1 | inconclusive: 126%
77 | CC(=O)NC1(C(F)(F)F)C(=O)Nc2c1c(=O)[nH]c(=O)n2CCc1ccccc1 (stereo unspecified) | inconclusive: 193%
78 | Cn1cc(C(=O)N2CCc3ccccc32)cn1 | inactive: 99.8%
79 | NS(=O)(=O)c1ccc(NS(=O)(=O)c2ccc(NC(=O)c3ccc(-c4ccccc4)cc3)cc2)cc1 | inactive: 113%
80 | Cc1ccc(C(=O)OCC(=O)Nc2cccc(Cl)c2C)c(O)c1 | inconclusive: 148%
81 | CCOC(=O)c1cnc2c(cnn2C)c1NCc1ccc(OC)cc1 | inconclusive: 97.2%
82 | CCc1nnc(NC(=O)CSc2nnc(-c3cccnc3)n2C)s1 | inconclusive: 72.6%
83 | O=C(NC1CCCCCC1)C(=S)N1CCOCC1 | inconclusive: 103%
84 | Cc1ccc(C)c(S(=O)(=O)N/N=C/c2cccnc2)c1 | inactive: 106%
85 | Cc1cc(C)c2c(C)c(C(=O)NCc3ccc(S(N)(=O)=O)cc3)oc2c1 | inconclusive: 97.5%
86 | COc1ccc(NC(=O)COc2nc3ccccc3nc2N2CCOCC2)c(OC)c1 | inconclusive: 140%
87 | O=C(O)/C=C/c1cccc(NC(=O)c2ccccc2)c1 | inconclusive: 107%
88 | COc1ccc(NC(=O)NC(=O)c2cc(OCC(F)(F)F)ccc2OCC(F)(F)F)cc1 | inconclusive: 212%
89 | O=C1NNC(c2ccccc2)=N/C1=C\c1ccco1 | inconclusive: 63.8%
90 | CC1(C)CC(=O)C(CC(=O)N2CCC(Cc3ccccc3)CC2)C(=O)C1 | inactive: 106%
91 | COc1ccc(Cl)cc1NC(=O)NC(C)C | inconclusive: 91.8%
